Test results from patent US20070192880.
No signal at the amounts used counts as a negative. For part of these data: Construct, isoform or probe ends are uncertain for at least one entry. For part of these data: Tags and fusion partners may be left off the protein sequences shown.

Legend:
ERα (expressed in cells) = ERα (expressed in cells) (UniProt P03372); assay: activity in cells; conditions: COS-1, E2; no induction; protein in cells; variant of consensus ERE; only the site is given
[1] = target: T1, CDC (in vitro translated) (UniProt P03372); assay: EMSA; conditions: half-site; protein translated in vitro; label: 32P end-label; only the motif is given; variant of consensus ERE
T1 sequence: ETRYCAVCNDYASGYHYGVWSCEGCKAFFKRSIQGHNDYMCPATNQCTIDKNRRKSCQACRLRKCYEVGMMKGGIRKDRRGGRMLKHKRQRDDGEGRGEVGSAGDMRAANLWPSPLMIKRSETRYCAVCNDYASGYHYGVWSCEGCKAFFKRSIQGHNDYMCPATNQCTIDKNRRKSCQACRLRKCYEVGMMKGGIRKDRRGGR

[2] = target: ERα (in vitro translated) (UniProt P03372); assay: EMSA; conditions: half-site; protein translated in vitro; protein details: Flag, rabbit reticulocyte; label: 32P end-label; only the motif is given; variant of consensus ERE

Sequence | activity on this sequence (ERα (expressed in cells)) | binding result [1] | binding result [2]
AGGTCATGACCT (double strand) [palindromic TRE (ERE half-sites, 0 spacer)] | not active |  | 
GGTCA (double strand) [ERE half-site fragment] |  | no binding | no binding
